Reference: PubChem BioAssay AID463116 (University of Pittsburgh Molecular Library Screening Center, 2010)
This is one part of the list. Shown are side measurements of this screen, not its main read-out; they come without a call. Compounds called inactive in the main read-out are mostly missing here.

Experiment: dynein cargo transport inhibitors, GR-EGFP translocation, confirmation, imaging, high-content imaging, GR-EGFP cells (AID 463116)
Conditions: 3617.4 GR-EGFP nuclear translocation imaging, dexamethasone-induced; measured here: cell count per field; at 20 µM

SMILES	z-score
CCOc1ccccc1N1C(=O)CC(Sc2n[nH]c(-c3ccccc3)n2)C1=O (centres undefined)	-0.105
COc1ccc(CN(CCC(c2ccccc2)c2ccc(OC(C)C)cc2)C(=O)CCl)cc1OC (centres undefined)	0.229
CCC(=O)Nc1ccc(C(=O)Cn2ncc(Cl)c(Cl)c2=O)cc1	0.0579
CC(=O)NCc1ccc(C(=O)CCl)cc1	-0.255
COc1ccc(NC(=O)CCc2nc3ccccc3s2)c(OC)c1	0.863
CS(=O)(=O)c1ccc(S(=O)CC(=O)Oc2ccc(Cl)cc2)c([N+](=O)[O-])c1 (centres undefined)	0.195
CCOc1cc(C=C(C(=O)OC)C(=O)OC)ccc1OCc1ccc([N+](=O)[O-])cc1	0.231
Nc1cccc2c1C(=O)N(C(=O)/C=C/c1cccc(Br)c1)C2=O	0.151
O=C(/C=C/c1cccnc1)/C=C/c1cccnc1	0.412
Cc1[nH]c2ccccc2c1/C=N/Nc1ccc([N+](=O)[O-])cc1S(=O)(=O)Nc1ccc(Cl)cc1	-0.556
CCOc1ccc(/C=C/[N+](=O)[O-])c2ccccc12	-1.34
O=C1c2cc([N+](=O)[O-])cc3cc([N+](=O)[O-])cc(c23)C(=O)N1c1ccccn1	0.401
CC(C)N1C/C(=C/c2cccnc2)C(=O)/C(=C/c2cccnc2)C1	0.513
CCCN(CCC)C(=O)c1cc([N+](=O)[O-])cc2c1-c1ccc([N+](=O)[O-])cc1C2=C(C#N)C#N	-0.0455
CCOC(=O)N1C/C(=C\c2ccccc2)C(=O)/C(=C/c2ccccc2)C1	0.554
C=CS(=O)(=O)c1ccc(Oc2ccc(S(=O)(=O)C=C)cc2)cc1	0.528
CCCN1C(=O)/C(=C\c2ccncc2)SC1=Nc1ccccc1	0.451
CC(=O)/C(=C/c1ccccc1)C(=O)Nc1ccccc1C	0.0108
CCOc1cc(/C=C2\C(=O)N(Cc3ccco3)C(C)=C2C(=O)OC)ccc1O	0.229
Cc1ccc(N2C(=N)/C(=C3/Nc4ccccc4S3)C(c3ccccc3)C2=O)cc1 (centres undefined)	-0.307

SMILES	z-score
CCOC(=O)/C=C/C(=O)Nc1ccccc1-c1ccccc1NC(=O)/C=C/C(=O)OCC	0.592
CC(C)(C)C1CCc2sc(-c3nnc(CCl)o3)cc2C1 (centres undefined)	0.252
CC(=O)n1cc(N(C(=O)CCl)c2ccccc2)c2ccccc21	-0.358
COc1cccc(/C(O)=C/c2nc3ccc(C(=O)NCCc4ccc(Cl)cc4)cc3[nH]c2=O)c1	0.745
CS(=O)(=O)c1ccc(C(=O)OCc2nnc(-c3ccc(Cl)cc3)o2)cc1[N+](=O)[O-]	-0.274
N#CC(C#N)=C1C=C2C=C(N3CCOCC3)CCC2CC1 (centres undefined)	0.0481
CCOC(=O)C1CCCN(C(=O)Cn2sc3nc(C)cc(C)c3c2=O)C1 (centres undefined)	0.207
CCSc1nc2ccccc2n1C(=O)/C=C\c1ccc(OC)c(OC)c1	0.411
COc1ccc(N(C(=O)CCl)C(C(=O)NCCc2ccccc2)c2cccs2)cc1Cl (centres undefined)	0.623
O=C(CCl)N(CCCNC(=O)C(F)(F)F)c1ccc([N+](=O)[O-])cc1	0.0387
O=C(COc1ccc(/C=C\[N+](=O)[O-])cc1)N1CCOCC1	0.19
COc1ccccc1/C=C/C(=O)/C=C/c1ccccc1O	0.708
CC1(C)COC(/C=C/c2cccc([N+](=O)[O-])c2)=N1	0.604
Cc1ccc(N(CCC#N)C(=O)CCl)cc1C	0.0514
N#Cc1ccc(/C=C/C(=O)c2cccnc2)cc1	0.225
O=C(NCCCN1CCCCCC1)c1ccc2c(Cl)c3c(nc2c1)CCCC3	0.698
CS(=O)(=O)c1ncc(Cl)c(C(=O)Nc2ccc3ccccc3c2)n1	0.47
Cc1ccc(N2C(=O)c3cccc4c(N)ccc(c34)C2=O)c2cccnc12	-0.835
Cn1cnc([N+](=O)[O-])c1S(=O)(=O)c1ccc(Cl)cc1	-0.365
O=[N+]([O-])c1ccc(S(=O)(=O)CC(CN2CCCCC2)N2CCCCC2)cc1 (centres undefined)	0.0288

Reformatted as a markdown table: 5 of the compounds above.

| SMILES | z-score |
| --- | --- |
| O=C(/C=C/c1cccnc1)/C=C/c1cccnc1 | 0.412 |
| Cc1[nH]c2ccccc2c1/C=N/Nc1ccc([N+](=O)[O-])cc1S(=O)(=O)Nc1ccc(Cl)cc1 | -0.556 |
| CCOc1ccc(/C=C/[N+](=O)[O-])c2ccccc12 | -1.34 |
| O=C1c2cc([N+](=O)[O-])cc3cc([N+](=O)[O-])cc(c23)C(=O)N1c1ccccn1 | 0.401 |
| CC(C)N1C/C(=C/c2cccnc2)C(=O)/C(=C/c2cccnc2)C1 | 0.513 |

Later entries

SMILES	z-score
Cn1c(=O)c([N+](=O)[O-])c(Cl)c2ccccc21	0.19
C=CCSc1nnc(C)c(/C=C/Nc2ccc(Cl)cc2)n1	0.495
O=C1C=C(NC2=CC3OC(c4ccccc4)OCC3OC2=O)CCC1 (centres undefined)	0.38
CCN(CC)c1ccc2cc(-c3nc4ccccc4[nH]3)c(=O)oc2c1	0.898
O=Cc1[nH]c2ccccc2c1N(C(=O)CCl)c1ccccc1	0.764
O=[N+]([O-])c1cc([N+](=O)[O-])c2cccnc2c1Oc1ccccc1O	-1.6
O=S(=O)(CCSc1ccccn1)c1nc2ccccc2s1	0.239
Cc1cc(-c2nnc(-c3ccccc3)c(-c3ccccc3)n2)c(C)o1	-1.47
Cc1cc(NC(=O)CCCS(=O)(=O)c2nc(-c3cccs3)cc(C(F)(F)F)n2)no1	-1.11
COC(=O)c1cc(=O)n(CCc2ccc(OC)cc2)c(=Nc2ccc(F)c(Cl)c2)s1	0.539
C/C=C(\CS(=O)(=O)c1ccccc1)S(=O)(=O)c1ccccc1	-0.0669
OC(CNCCc1ccc(Cl)cc1)COc1ccc2ccccc2c1 (centres undefined)	-5.08
COC(=O)NC(=C(Cl)Cl)S(=O)(=O)c1ccccc1	-0.296
CCOc1ccc(CN(C)C(=O)CCl)cc1	0.432
COCCNC(=O)/C(C#N)=C/C=C/c1ccccc1[N+](=O)[O-]	0.122
CCOc1cc(/C=C\[N+](=O)[O-])ccc1OCC(=O)Nc1ccccc1C	-0.115
C=C1C(=O)C=C2CN(C(=O)c3ccccc3)[C@@](Cc3ccc(F)cc3)(C(=O)OC)[C@@H]12	0.189
O=C1COc2ccc(C(=O)CCl)cc2N1	-0.0624
O=C(OCCN1C(=O)c2cccc3c(N4CCOCC4)ccc(c23)C1=O)c1cccc(Cl)c1	0.443
